# In the supplement of paper PMC3334620:
# The full ranking holds about 33,000 sequences; the median of “E-score (-0.5 to 0.5)” is about -0.0034, and the highest 2% start at about 0.25. Some of the results follow.
# Biological target: T1, Yap3 (UniProt P38749)
# T1 sequence: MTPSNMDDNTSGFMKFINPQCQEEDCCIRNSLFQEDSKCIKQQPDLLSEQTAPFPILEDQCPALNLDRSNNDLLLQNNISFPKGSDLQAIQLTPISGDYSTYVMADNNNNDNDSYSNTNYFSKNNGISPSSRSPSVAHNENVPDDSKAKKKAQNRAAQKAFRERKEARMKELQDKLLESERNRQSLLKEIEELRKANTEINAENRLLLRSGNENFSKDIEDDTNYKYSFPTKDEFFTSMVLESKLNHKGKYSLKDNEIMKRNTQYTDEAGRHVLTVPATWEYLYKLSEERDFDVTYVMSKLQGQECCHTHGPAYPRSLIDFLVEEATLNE
# Experiment: PBM E-score (8-mer binding enrichment) (E-score (-0.5 to 0.5)); higher = stronger / more preferred TF binding
# Conditions: protein concentration: 100 nM; construct: GST-full length
# Description: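 Universal 'all 10-mer' protein binding microarrays (Agilent AMADID 015681) probed with GST-tagged S. cerevisiae TFs (full-length or DBD) made by in vitro transcription/translation (PURExpress), about 100-200 nM. Bound TF was detected with fluorescent anti-GST. Each ungapped 8-mer (which stands for itself and its reverse complement) is scored by the PBM enrichment score (E-score), a modified Wilcoxon-Mann-Whitney statistic from -0.5 to +0.5, computed with the Universal PBM Analysis Suite. Scale: above 0.35 generally sequence-specific binding.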
row,Sequence,PBM E-score
1,CGTAACAC,0.135
2,AGCGATAA,0.0176
3,CGTTGAAC,-0.07
4,GGGTGGTA,-0.0891
5,ATATGGTG,0.105
6,GCTTCCGA,0.0118
7,CTCTGTAA,-0.0654
8,ACCCCCAG,-0.359
9,GTGAATTA,0.233
10,GACCAGTA,-0.157
11,CCAACTTC,-0.106
12,ACACTCTA,0.0899
13,CATCCTAG,-0.0476
14,AGGAAGAG,-0.185
15,AGGTCTCA,-0.0409
16,ATCGTACA,0.121
17,CGGAATAC,0.115
18,GAGAGTGA,0.0641
19,AAATGTCA,0.00064
20,ACCCGTCT,-0.254
21,TCCTCACA,-0.106
22,TACTAAAA,0.255
23,ACGGAGAG,-0.0434
24,ACTCCAGA,-0.173
25,GCCCGGGC,-0.175

row,Sequence,PBM E-score
1,GCGTGTCA,0.126
2,CTTGAAAC,0.177
3,GACACCTC,-0.0165
4,CACTCTTA,0.0336
5,ATGCGCAC,0.0993
6,AGAACGAT,0.061
7,ACTAGTAG,0.107
8,CTTCGACA,-0.104
9,AAAGCGTG,0.0323
10,AGGGCGAA,-0.0689
11,CAAACGAC,0.1
12,CCAGCCCA,-0.301
13,CCTGAGGC,-0.294
14,AGCCCGCG,-0.157
15,AATGTATG,0.0768
16,ATTTTTTA,0.255
17,GGGAAACA,0.0457
18,CCGAACGA,0.124
19,GACCGGAA,-0.0372
20,CATCCATG,-0.0435
21,GATCGCCA,0.0308
22,TGTCGGAA,-0.0152
23,CAGTATAG,0.0993
24,AAAGATGA,0.144
25,CACACGGC,-0.195

row,Sequence,PBM E-score
1,ACTAAATC,0.198
2,CAAAACGC,0.0782
3,CGCGCGCC,0.107
4,AAGATGAC,0.162
5,CAATCACC,0.00363
6,GGAAGTGA,0.0561
7,AGATTGAG,0.0149
8,GCCTGCGA,-0.175
9,CGTGTTTA,0.0506
10,CGCGGACA,0.0399
11,AACGGGGA,-0.116
12,GCCAAGGA,-0.241
13,CGCTTTAC,-0.00957
14,CTGTTAGC,-0.121
15,GCGGGAGA,-0.127
16,GCAATTGA,0.0129
17,AATGAACT,0.196
18,TCATCCAA,0.135
19,GAGTCAAC,-0.125
20,AAGGATAT,0.125
21,TGAGTGCA,0.0109
22,AAGAAGGA,0.0372
23,AATTAGGA,0.145
24,AATTTTTA,0.252
25,AACACCCG,0.0846

row,Sequence,PBM E-score
1,ACACCGCA,-0.00559
2,CCCGCAAG,-0.276
3,CCAAGGCG,-0.11
4,ATAAGTAC,0.197
5,ACAGAGGC,-0.134
6,CCGCAGAC,-0.19
7,CGTTTTTC,0.0598
8,GACACCGC,-0.169
9,ATTAAGGG,-0.209
10,ACACTCAG,-0.0268
11,AGGAAATA,0.254
12,CTTCACCA,-0.0899
13,AAAAAAGG,0.121
14,CTGAAATC,0.0111
15,CTCTAGGA,-0.233
16,ACAGTGTC,-0.099
17,TGTCAAAA,0.0917
18,ATTTTGGA,0.208
19,CACTTCCC,-0.0568
20,AATTGTAT,0.0992
21,CAGGACAA,0.143
22,GAAAATCA,0.132
23,CCCACGTA,0.0159
24,AGTCATGC,-0.0461
25,CCGTACGA,-0.0152

row,Sequence,PBM E-score
1,CCGGCCGC,-0.21
2,AGGAACCA,-0.0185
3,TCTAACAA,0.0986
4,TCCCGGCA,-0.21
5,CCAATCAC,-0.00032
6,CAAGAAAG,0.0675
7,CTTGTATA,0.127
8,CCACCCCC,-0.309
9,GTCTGTGA,0.0713
10,AGTACTGC,-0.0168
11,ATGTGCTG,0.0962
12,AGCCCTGA,-0.245
13,AGGAATCA,0.137
14,GTTGTGTA,0.173
15,CCTTTGCG,-0.00088
16,AATTCTAT,0.0936
17,GGCCCGTA,-0.172
18,ACTGAATC,-0.0833
19,GAGTCGTA,0.0658
20,CCAATGAC,-0.0507
21,TAACCCCA,-0.133
22,GCATCGAC,-0.0451
23,CGGCCACC,-0.222
24,CTTCCGAA,-0.108
25,AGGACACA,0.0983

# Shown with tabs: entries from further up
row	Sequence	PBM E-score
7	AGATTGAG	0.0149
8	GCCTGCGA	-0.175
9	CGTGTTTA	0.0506
10	CGCGGACA	0.0399
11	AACGGGGA	-0.116
12	GCCAAGGA	-0.241
13	CGCTTTAC	-0.00957
14	CTGTTAGC	-0.121
15	GCGGGAGA	-0.127
16	GCAATTGA	0.0129
17	AATGAACT	0.196
18	TCATCCAA	0.135
19	GAGTCAAC	-0.125
20	AAGGATAT	0.125
21	TGAGTGCA	0.0109
22	AAGAAGGA	0.0372
23	AATTAGGA	0.145
24	AATTTTTA	0.252
25	AACACCCG	0.0846
1	ACACCGCA	-0.00559
2	CCCGCAAG	-0.276
3	CCAAGGCG	-0.11
4	ATAAGTAC	0.197
5	ACAGAGGC	-0.134
6	CCGCAGAC	-0.19
7	CGTTTTTC	0.0598
8	GACACCGC	-0.169
9	ATTAAGGG	-0.209
10	ACACTCAG	-0.0268
11	AGGAAATA	0.254
12	CTTCACCA	-0.0899
13	AAAAAAGG	0.121
14	CTGAAATC	0.0111
15	CTCTAGGA	-0.233
16	ACAGTGTC	-0.099
17	TGTCAAAA	0.0917
18	ATTTTGGA	0.208
19	CACTTCCC	-0.0568
20	AATTGTAT	0.0992
21	CAGGACAA	0.143
22	GAAAATCA	0.132
23	CCCACGTA	0.0159
24	AGTCATGC	-0.0461
25	CCGTACGA	-0.0152
1	CCGGCCGC	-0.21
2	AGGAACCA	-0.0185
3	TCTAACAA	0.0986
4	TCCCGGCA	-0.21
5	CCAATCAC	-0.00032
6	CAAGAAAG	0.0675
7	CTTGTATA	0.127
8	CCACCCCC	-0.309
9	GTCTGTGA	0.0713
10	AGTACTGC	-0.0168
11	ATGTGCTG	0.0962
12	AGCCCTGA	-0.245
13	AGGAATCA	0.137
14	GTTGTGTA	0.173
15	CCTTTGCG	-0.00088
16	AATTCTAT	0.0936
17	GGCCCGTA	-0.172
18	ACTGAATC	-0.0833
19	GAGTCGTA	0.0658
20	CCAATGAC	-0.0507
21	TAACCCCA	-0.133
22	GCATCGAC	-0.0451
23	CGGCCACC	-0.222
24	CTTCCGAA	-0.108
25	AGGACACA	0.0983

# The results go on:

row,Sequence,PBM E-score
1,GATGACGA,0.201
2,TCCTAAAA,-0.115
3,CACCAGAA,-0.106
4,GATCGTTA,0.055
5,CCAGGCGA,-0.29
6,ATCAGCTG,0.195
7,ATACCAAC,0.202
8,AATTGCTG,0.15
9,ACACGGCT,0.0307
10,ATGCGGCC,-0.143
11,GTCAGACA,-0.015
12,GGAGACGA,0.117
13,CCCTTGCA,-0.162
14,CATACGCG,0.0267
15,GCCATGAA,-0.0625
16,ATATTTAG,0.194
17,ATAGCATC,0.0327
18,AATTTCGC,0.189
19,ATACGGCG,0.105
20,GATCCGGA,-0.0561
21,TTAGGAAA,0.0906
22,AAGCTCCA,-0.0626
23,ACCGGCCC,-0.398
24,CTAGAAGA,-0.0684
25,CGCCAGAA,-0.0765

row,Sequence,PBM E-score
1,CATTCCAA,0.0267
2,ATACACAG,0.163
3,GGGTTATA,-0.173
4,CATAAAGC,-0.0485
5,TGGGGCAA,-0.0325
6,AGGAATAC,0.0328
7,GCGGTCGA,0.0757
8,CGGGTATC,-0.0443
9,ACATAAAG,0.113
10,AGCAGCCC,-0.309
11,GGGCTCTA,-0.147
12,TATGCAGA,0.0525
13,CATTAAGA,0.0516
14,CGATATGA,-0.0173
15,GTAAGTGA,0.142
16,ACTTGCTA,-0.0697
17,ACAGGTTC,-0.0416
18,AAGTAGGA,0.0486
19,CGATACCG,-0.00692
20,CCCATCGA,-0.0875
21,GGTCGGAA,-0.0211
22,AGGACGTA,-0.0964
23,AGCCTGAG,-0.228
24,CAGTTTTC,0.206
25,AGACAACC,0.121

row,Sequence,PBM E-score
1,AATGTCAA,0.0174
2,ATGCACAG,-0.14
3,CAGTCAAC,-0.0224
4,AAAACAGG,0.00513
5,AGACTCGC,-0.169
6,ACGGGGCA,-0.283
7,AATGCTGG,0.0512
8,AAGATACG,-0.018
9,CGCATAAG,0.145
10,CATACTCC,-0.0395
11,AGTTGCTG,-0.0839
12,GCTGAAAC,-0.0804
13,ATGAGTCG,0.0895
14,GACAGCTA,-0.119
15,AAACCAAG,0.107
16,ATTCTGGG,0.0207
17,CCCGCGGA,0.115
18,CCTTACGC,0.162
19,ACCCCCGT,-0.333
20,CTCCTCCC,-0.358
21,AATTGCTA,0.121
22,CATATTAC,0.282
23,AATTACTA,0.325
24,AGCAGGTA,-0.02
25,GTATAGAC,0.0787

row,Sequence,PBM E-score
1,CCTATGTA,0.0458
2,GCAGATGA,-0.0542
3,CGGCGCTA,-0.16
4,ACCAAGGC,-0.116
5,CGCAAACG,0.0764
6,CAAACCGG,-0.0147
7,ATTATCAG,0.0829
8,AGATGTAC,0.00924
9,ATTAAATA,0.268
10,ATACAGGC,0.0169
11,CCTGCAAC,-0.0602
12,AGGGTAAC,-0.00638
13,CGATGAGA,0.0779
14,GGGCTCAC,-0.346
15,ATCACACC,-0.00654
16,CATGTGGA,-0.0243
17,CTCTACAC,0.00564
18,ACCAGGTC,-0.0571
19,AGACGAAC,0.164
